The values below come from the supplement of paper PMC10849652.

Protein sequences, listed by entry. Tags and fused reporters are not part of them. Lines headed by an entry give the natural chain unless they say otherwise; changes in a name come on top.
UniProt Q96L58: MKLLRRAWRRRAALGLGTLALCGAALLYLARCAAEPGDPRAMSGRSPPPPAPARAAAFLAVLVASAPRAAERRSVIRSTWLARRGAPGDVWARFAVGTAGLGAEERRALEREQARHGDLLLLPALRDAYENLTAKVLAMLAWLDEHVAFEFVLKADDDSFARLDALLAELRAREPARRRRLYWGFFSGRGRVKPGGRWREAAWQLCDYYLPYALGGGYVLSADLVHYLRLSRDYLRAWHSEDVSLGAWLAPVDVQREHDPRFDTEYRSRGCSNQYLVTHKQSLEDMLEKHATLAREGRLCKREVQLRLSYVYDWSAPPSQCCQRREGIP
UniProt B2RBV5: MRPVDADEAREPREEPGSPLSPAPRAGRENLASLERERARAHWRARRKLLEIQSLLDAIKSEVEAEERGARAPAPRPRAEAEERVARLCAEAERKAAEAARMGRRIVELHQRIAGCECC
UniProt Q9NWL6: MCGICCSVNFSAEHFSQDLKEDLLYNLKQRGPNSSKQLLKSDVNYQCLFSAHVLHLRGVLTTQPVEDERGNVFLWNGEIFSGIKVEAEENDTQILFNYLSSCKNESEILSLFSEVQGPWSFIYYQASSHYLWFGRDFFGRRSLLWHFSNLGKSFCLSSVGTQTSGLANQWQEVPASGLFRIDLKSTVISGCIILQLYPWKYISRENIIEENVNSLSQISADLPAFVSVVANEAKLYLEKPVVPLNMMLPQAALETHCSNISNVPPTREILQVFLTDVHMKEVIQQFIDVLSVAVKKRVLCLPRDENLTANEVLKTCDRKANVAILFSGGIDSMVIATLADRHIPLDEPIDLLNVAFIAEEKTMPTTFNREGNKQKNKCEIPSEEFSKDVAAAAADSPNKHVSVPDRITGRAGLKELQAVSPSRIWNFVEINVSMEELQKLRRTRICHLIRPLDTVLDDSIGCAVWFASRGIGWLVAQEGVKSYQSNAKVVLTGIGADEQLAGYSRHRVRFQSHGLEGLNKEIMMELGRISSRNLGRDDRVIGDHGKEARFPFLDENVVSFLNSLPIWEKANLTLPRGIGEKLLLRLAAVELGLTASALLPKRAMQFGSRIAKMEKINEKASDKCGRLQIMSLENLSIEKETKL
UniProt P98194: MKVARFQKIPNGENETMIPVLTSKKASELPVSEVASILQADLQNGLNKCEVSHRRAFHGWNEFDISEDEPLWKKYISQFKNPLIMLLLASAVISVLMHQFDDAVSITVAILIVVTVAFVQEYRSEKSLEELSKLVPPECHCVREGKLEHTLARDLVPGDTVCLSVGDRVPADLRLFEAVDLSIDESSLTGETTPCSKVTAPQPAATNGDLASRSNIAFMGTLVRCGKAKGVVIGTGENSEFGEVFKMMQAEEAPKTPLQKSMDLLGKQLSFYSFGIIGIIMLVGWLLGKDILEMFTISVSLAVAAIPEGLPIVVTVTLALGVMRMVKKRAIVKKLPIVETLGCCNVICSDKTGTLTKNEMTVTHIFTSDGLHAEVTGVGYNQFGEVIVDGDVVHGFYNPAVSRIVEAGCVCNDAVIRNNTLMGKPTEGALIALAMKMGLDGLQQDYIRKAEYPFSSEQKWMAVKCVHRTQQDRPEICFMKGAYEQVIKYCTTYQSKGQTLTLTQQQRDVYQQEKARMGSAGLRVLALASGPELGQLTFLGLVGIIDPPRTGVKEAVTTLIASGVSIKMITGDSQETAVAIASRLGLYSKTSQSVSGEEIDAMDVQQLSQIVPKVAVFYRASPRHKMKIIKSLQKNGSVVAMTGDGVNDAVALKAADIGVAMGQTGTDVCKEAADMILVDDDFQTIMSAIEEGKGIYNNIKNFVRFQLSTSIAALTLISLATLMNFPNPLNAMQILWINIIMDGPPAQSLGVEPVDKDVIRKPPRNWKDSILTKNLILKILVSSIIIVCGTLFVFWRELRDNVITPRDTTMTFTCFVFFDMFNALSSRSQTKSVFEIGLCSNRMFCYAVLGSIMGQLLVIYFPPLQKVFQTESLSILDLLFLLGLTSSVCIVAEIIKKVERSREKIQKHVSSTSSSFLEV
UniProt P18846: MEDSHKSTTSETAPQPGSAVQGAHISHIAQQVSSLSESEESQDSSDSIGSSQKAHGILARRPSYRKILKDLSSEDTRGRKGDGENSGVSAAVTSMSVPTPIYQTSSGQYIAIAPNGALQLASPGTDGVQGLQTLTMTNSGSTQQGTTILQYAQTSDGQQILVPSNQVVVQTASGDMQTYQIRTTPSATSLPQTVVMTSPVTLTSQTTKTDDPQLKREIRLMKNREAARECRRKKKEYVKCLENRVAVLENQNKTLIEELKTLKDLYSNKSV
UniProt P0C7T5: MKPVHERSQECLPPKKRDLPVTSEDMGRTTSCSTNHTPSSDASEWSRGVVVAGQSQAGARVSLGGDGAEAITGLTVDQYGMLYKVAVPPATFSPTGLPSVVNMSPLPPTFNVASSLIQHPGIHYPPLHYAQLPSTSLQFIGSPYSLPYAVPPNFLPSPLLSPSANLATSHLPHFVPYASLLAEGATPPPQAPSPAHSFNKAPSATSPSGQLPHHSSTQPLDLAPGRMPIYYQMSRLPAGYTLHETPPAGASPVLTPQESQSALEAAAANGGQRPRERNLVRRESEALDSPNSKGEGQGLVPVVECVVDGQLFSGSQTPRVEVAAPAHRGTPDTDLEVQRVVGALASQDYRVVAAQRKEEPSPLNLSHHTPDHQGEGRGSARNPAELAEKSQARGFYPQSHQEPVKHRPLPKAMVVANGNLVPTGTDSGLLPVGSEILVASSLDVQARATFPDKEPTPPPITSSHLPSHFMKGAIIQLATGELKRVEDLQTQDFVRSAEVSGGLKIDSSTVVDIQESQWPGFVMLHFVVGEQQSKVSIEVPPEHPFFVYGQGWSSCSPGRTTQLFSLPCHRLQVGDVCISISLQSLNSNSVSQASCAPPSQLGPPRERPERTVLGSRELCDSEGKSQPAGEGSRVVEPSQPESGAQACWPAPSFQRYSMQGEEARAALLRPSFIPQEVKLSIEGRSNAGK
UniProt Q2TAZ0: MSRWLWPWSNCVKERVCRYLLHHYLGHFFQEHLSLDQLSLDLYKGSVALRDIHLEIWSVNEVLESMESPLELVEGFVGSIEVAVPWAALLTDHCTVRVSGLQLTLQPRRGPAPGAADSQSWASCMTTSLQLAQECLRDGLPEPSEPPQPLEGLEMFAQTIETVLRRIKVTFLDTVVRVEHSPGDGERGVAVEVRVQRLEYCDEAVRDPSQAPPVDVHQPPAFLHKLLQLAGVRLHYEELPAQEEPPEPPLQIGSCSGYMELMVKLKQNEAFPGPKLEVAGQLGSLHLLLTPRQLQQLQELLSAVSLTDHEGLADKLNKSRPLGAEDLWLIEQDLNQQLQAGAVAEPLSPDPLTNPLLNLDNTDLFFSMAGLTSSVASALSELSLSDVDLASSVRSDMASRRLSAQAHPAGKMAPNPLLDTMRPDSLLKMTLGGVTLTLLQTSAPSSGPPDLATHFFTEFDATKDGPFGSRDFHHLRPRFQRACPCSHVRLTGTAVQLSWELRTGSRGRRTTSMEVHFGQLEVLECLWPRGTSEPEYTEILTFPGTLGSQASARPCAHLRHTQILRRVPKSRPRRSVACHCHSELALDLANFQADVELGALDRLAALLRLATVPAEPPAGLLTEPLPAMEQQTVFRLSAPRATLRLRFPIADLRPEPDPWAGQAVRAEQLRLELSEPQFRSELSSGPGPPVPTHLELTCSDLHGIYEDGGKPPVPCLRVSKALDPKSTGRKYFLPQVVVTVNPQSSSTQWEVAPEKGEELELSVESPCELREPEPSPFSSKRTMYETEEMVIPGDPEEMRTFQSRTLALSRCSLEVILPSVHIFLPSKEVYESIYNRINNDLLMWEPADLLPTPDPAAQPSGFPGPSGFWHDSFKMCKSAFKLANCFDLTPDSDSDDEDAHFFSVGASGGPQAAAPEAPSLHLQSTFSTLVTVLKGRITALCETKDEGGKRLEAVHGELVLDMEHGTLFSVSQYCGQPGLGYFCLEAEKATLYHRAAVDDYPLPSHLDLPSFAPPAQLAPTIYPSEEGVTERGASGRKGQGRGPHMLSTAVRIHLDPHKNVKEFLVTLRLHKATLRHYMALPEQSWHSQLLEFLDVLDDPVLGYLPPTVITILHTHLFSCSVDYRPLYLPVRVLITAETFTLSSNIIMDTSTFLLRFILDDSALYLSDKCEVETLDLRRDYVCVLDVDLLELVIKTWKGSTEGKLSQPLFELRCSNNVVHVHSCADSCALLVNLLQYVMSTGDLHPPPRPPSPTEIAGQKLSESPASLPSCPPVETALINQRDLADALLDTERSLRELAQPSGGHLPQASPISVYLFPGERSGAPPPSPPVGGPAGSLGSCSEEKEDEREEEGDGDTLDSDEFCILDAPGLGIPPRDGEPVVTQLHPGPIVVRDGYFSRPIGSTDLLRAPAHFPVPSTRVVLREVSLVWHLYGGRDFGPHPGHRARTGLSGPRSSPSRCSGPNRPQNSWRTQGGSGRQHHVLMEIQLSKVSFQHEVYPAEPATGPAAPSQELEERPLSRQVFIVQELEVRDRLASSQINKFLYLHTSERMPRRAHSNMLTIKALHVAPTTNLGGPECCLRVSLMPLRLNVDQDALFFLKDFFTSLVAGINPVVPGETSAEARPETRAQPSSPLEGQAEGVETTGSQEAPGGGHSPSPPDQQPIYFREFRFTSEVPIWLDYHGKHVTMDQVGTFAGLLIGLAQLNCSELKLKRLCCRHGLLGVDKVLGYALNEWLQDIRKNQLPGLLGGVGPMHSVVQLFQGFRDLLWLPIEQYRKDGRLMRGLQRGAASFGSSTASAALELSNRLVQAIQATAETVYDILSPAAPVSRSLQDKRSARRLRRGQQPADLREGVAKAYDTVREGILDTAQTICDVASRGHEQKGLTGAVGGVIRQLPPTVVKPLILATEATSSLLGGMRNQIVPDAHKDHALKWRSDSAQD
UniProt Q96DX5: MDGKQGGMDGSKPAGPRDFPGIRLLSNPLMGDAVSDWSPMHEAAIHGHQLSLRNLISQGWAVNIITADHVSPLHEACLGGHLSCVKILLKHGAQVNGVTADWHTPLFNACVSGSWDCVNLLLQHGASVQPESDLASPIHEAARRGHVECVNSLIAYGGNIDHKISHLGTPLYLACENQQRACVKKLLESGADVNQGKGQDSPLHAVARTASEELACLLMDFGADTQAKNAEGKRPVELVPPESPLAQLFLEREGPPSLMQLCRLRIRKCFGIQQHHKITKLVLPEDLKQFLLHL
UniProt Q6P4H8: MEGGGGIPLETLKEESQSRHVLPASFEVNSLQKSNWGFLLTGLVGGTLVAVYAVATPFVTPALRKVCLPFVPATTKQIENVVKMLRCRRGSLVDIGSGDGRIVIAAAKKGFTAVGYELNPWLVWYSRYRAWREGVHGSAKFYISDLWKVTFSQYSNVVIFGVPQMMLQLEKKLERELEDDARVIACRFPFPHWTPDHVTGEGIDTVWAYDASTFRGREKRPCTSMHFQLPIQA

What all share (experiment): log2 fold change, soluble protein after heating vs DMSO (PISA); higher = thermal stabilisation; K562 lysate, 10 uM; active = over 0.2 and 3.5 SD of the protein, either way, in both replicates (recomputed)
Compound in one assay: O=C(CCCCCCC(=O)Nc1ccccc1)NO [vorinostat]
An outline of the steps:
(§1)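 Pellets of K562 cells were dounce-homogenised in PBS pH 7.4 with 1 mM MgCl2, and the crude extract was held at 1 mg/mL protein for a 30 min treatment with 10 μM compound. Aliquots were heated for 3 min over 48°C-58°C and pooled before NP-40 was added to 0.5% at 4°C. The supernatant from 21,000xg for 90 min was quantified by TMTpro 16plex LC-MS/MS with channel sums equalised. Values are reported from duplicates as log-two fold change in thermal stability relative to solvent controls.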

Compound in another assay: O=C(O)c1ccc2c(c1)nc(Nc1cccc(Cl)c1)c1ccncc12 [silmitasertib]
Put shortly: as §1

Compound in assay [1]: O=C1NC(=O)C(c2cnc3ccccn23)=C1c1cn2c3c(cc(F)cc13)CN(C(=O)N1CCCCC1)CC2
An outline of the steps:
as §1

Compound in another assay: c1cn2cc(-c3ccc4cn[nH]c4c3)nc(Nc3ccc(N4CCOCC4)cc3)c2n1 [entospletinib]
An outline of the steps: as §1

Compound in assay [2]: NCC(=O)Nc1ccc(-n2nc(C(F)(F)F)cc2-c2ccc3c(ccc4ccccc43)c2)cc1
Put shortly:
as §1

Some of the results follow.

B3GALT6 (UniProt Q96L58): the log2 fold change in the assay with vorinostat is inactive: 0.218; in the assay with silmitasertib, inactive: -0.029; in assay [1] it was inactive: 0.071.

On to NA (UniProt B2RBV5), for which the log2 fold change in the assay with vorinostat was inactive: -0.01; in the assay with silmitasertib it was inactive: -0.056; in assay [1], inactive: -0.266; with entospletinib, inactive: -0.092.

On to ASNSD1 (UniProt Q9NWL6), for which the log2 fold change is inactive: -0.453 with vorinostat, inactive: -0.057 with silmitasertib and inactive: -0.067 with entospletinib.

With ATP2C1 isoform 3 (UniProt P98194), the log2 fold change in the assay with vorinostat is inactive: 0.099; with silmitasertib, inactive: 0.103.

Take ATF1 (UniProt P18846): the log2 fold change in the assay with vorinostat is inactive: 0.076; with silmitasertib, inactive: 0.023; in assay [1], inactive: -0.085; with entospletinib, inactive: -0.141.

Turning to ATXN1L (UniProt P0C7T5), the figures for the log2 fold change (in assay [2]; in assay [1]; with entospletinib) were inactive: 0.061, inactive: 0.022 and inactive: -0.059, respectively.

For the target ATG2A (UniProt Q2TAZ0), the log2 fold change with vorinostat is inactive: -0.034; in the assay with silmitasertib it was inactive: -0.324.

For ATG4D (UniProt Q86TL0), the log2 fold change was inactive: 0.117 in assay [1] and inactive: 0.004 with entospletinib.

For the target ATP1B1 (UniProt P05026), the log2 fold change with vorinostat is inactive: 0.21; with silmitasertib, inactive: 0.025; in assay [1], inactive: 0.004.

As for ASB9 (UniProt Q96DX5), the log2 fold change is inactive: 0.103 in the assay with vorinostat and inactive: -0.16 with silmitasertib.

For ATPSCKMT (UniProt Q6P4H8), the log2 fold change in assay [1] is inactive: 0; in the assay with entospletinib it was inactive: 0.105.
